## Library screening results

Amino acid sequences for entries named in this document (tags omitted).
UniProt E9BF75, entry or part of it: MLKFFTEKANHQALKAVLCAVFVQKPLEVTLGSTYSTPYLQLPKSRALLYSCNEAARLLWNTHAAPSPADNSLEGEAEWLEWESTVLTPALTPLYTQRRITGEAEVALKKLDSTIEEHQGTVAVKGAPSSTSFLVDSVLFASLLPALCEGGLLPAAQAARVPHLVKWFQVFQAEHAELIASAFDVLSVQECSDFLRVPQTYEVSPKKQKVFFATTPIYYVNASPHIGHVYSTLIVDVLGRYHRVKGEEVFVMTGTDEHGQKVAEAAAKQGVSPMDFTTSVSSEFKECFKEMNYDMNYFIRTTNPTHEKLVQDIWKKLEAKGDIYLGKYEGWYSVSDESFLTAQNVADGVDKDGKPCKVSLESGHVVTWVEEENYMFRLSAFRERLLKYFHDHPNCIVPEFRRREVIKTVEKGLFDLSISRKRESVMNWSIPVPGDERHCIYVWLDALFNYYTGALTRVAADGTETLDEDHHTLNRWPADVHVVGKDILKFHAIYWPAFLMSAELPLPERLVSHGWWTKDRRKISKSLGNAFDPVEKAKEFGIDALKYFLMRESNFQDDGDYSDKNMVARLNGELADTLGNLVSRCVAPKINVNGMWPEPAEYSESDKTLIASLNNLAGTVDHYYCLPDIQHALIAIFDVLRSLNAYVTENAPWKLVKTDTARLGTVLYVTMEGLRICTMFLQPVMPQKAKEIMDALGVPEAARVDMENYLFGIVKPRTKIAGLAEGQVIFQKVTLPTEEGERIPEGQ

Mtb heat-shock: 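Assay on Mycobacterium tuberculosis, filed only as a heat shock assay from Cornell; the read-out is not stated. The concentration is filed as 10 mM, unlikely as a test dose, so the dose is not known. Direction is inferred from retests: higher values go with stronger inhibition. Size under these conditions: about 69,000 compounds, about 930 of them at 50% or above in at least one test.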
LdMetRS: 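Primary screen of methionyl-tRNA synthetase; the read-out is not stated. Target: Methionyl-tRNA synthetase (putative), Leishmania donovani (UniProt E9BF75). The test concentration is not given. Values are per cent inhibition. Of about 68,000 compounds tested this way, about 24 (0.035%) reached 50% or more in at least one test.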
Mtb growth Cornell: 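Whole-cell assay for inhibitors of Mycobacterium tuberculosis growth, labelled Cornell in the record; the read-out is not stated. The concentration is filed as 10 mM, unlikely as a test dose, so the dose is not known. Higher means stronger inhibition (inferred from two other growth screens of the library). Size under these conditions: about 53,000 compounds, about 900 of them at 50% or above in at least one test.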

All values are in %.
How 0% and 100% were set is not recorded. Most values in the screen are low, and negative values occur.
Compounds were drawn at random from those tested, without regard to their results.
A dash means the value is not listed here; it may have been measured.

structure | Mtb heat-shock | LdMetRS | Mtb growth Cornell
O=C(O)C(F)(F)F.[H][C@]12CN(Cc3ccc(F)cc3)C[C@@]1([H])S(=O)(=O)CC[C@@H]2C(=O)NCC(C)C | -27.21 | - | -
Cc1nc(N)cc(C2(C)CCCNC2)n1 (stereo unspecified) | -3.19 | 11.05 | 52.22
CC(Cn1cc(Br)cn1)C(=O)Nc1ccc(Br)cn1 (stereo unspecified) | 4.346 | 32.01 | 32.1
O=C(NCCNCc1cccc2c1OCCCO2)C1CCCC1 | -39.43 | 10.57 | -
CC(=O)N1CCC2(CC1)CN(C)C(=O)C[C@H]2C(F)(F)F | - | 5.797 | -
CCCN(CCS(C)(=O)=O)C1CCc2ccccc2C1 (stereo unspecified) | -4 | 9.524 | -
O=C(O)C(F)(F)F.[H][C@@]12COC[C@H](NS(C)(=O)=O)[C@]1([H])CN(Cc1ccc(CC)o1)C2 | -25.25 | - | 24.54
CCc1nnsc1C(=O)N1CCCN(Cc2ccccc2)CC1 | 1.179 | 10.65 | -14.13
Cc1nn(C)c(C)c1CC(=O)NCc1cccnc1OC1CCCC1 | -5.508 | 7.317 | -11.82
CN(Cc1cnn(C)c1)C(=O)c1ccc(=O)n(Cc2ccccc2)n1 | -18.81 | 13.5 | -15.39
CC(C)CN1CCS(=O)(=O)[C@@H]2CCN(S(=O)(=O)c3ccccc3)CC[C@@H]21 | - | 1.038 | -
Cc1cnn(CC2CN(CCc3cccs3)CCO2)c1 (stereo unspecified) | -10.05 | 19.36 | 13.16
O=C1CC(c2ccc(C(F)(F)F)cc2)c2snc(C(=O)O)c2N1 (stereo unspecified) | 15.61 | 2.764 | -
[H][C@]12CCCCN1CCC[C@H]2Cn1ccnc1-c1ccc(OC)cc1 | -22.33 | - | -
COc1nccnc1N1CCC2(CCCN(C(C)C)C2=O)C1 (stereo unspecified) | -8.918 | 12.73 | 10.56
[H][C@@]12C[C@@H](C)O[C@]1([H])CN(C(=O)C1=CCCCC1)C2 | 9.3 | - | -
O=C(O)C(F)(F)F.[H][C@]12CCN(c3ncccn3)[C@@]1([H])CC[C@H](COCc1csc(C)n1)O2 | 2.09 | - | 21.66
CN(C)CCNC(=O)CCC1CCN(C(=O)c2ccc(O)cn2)CC1 | 13.96 | 8.13 | -15.07
CN(C)c1nc2c(c(NCc3cc(O)ncn3)n1)CCCC2 | 29.28 | 13.12 | 21.82
NC(=O)CC1CCN(C(=O)c2cnc(-c3ccccc3F)s2)CC1 | 20.19 | 7.229 | 5.901
Cc1cc(C2CCC2)nc(NCC(C)(C)CO)n1 | -5.177 | 14.03 | 40.7
Cc1nc(CSCCC(=O)NCc2cccnc2N(C)C)cs1 | 9.88 | 7.981 | -45.54
CN1CCCN(C(=O)c2cc3c(s2)CCN3C(=O)C2CC2)CC1 | 4.754 | 24.09 | 8.129
c1ccc(-c2nc3c(c(NCc4nnc5n4CCC5)n2)CCNC3)cc1 | -1.823 | 14.88 | -
CCN(CC)c1ccc(C(=O)N2C[C@@H]3CC[C@H](C2)N(CCOC)C3)cc1 | - | 18.37 | -
O=C(O)C(F)(F)F.[H][C@@]12CN(C(=O)c3ccoc3)C[C@]1([H])OCCN2c1ncccn1 | -2.477 | - | 22.26
N#Cc1ccccc1CN1CCC(c2nccn2CC(N)=O)CC1 | -8.7 | 11.38 | 12.65
Cn1ccc2c(C(=O)N3CC[C@@]4(O)CCCC[C@H]4C3)cccc21 | - | 9.394 | -
COCCN(C)CC(=O)N1C[C@@H](NC(C)=O)[C@H](c2ccc(OC)cc2)C1 | 12.57 | 9.589 | 1.862
Cc1cnccc1N1CCCN(C(=O)CCCc2cn[nH]c2)CC1 | 7.749 | 8.374 | -2.295
Cc1ccc(C(=O)N2CCC3(CC2)CC(N2CCCC2)C3)cc1 | - | 11.78 | -
N[C@H]1CN(C(=O)c2ccc(Cl)cc2O)C[C@@H]1C1CC1 | -4.282 | 20.5 | 20.27
COc1ccc2c(=O)n(CC3CCCCN3C)ccc2c1OC (stereo unspecified) | -7.971 | - | -
CCOCC1CN(Cc2csc(C)n2)Cc2nccn2C1.O=C(O)C(F)(F)F (stereo unspecified) | -37.27 | - | -11.17
Cc1ccc(CN(c2cc(C)nc3nc(C(F)(F)F)nn23)C2CC2)cc1 | -6.657 | 12.98 | -1.217
O=C(O)C(F)(F)F.O=C(O)C(F)(F)F.[H][C@@]12COC[C@]1([H])[C@H](OCc1ccccn1)CN2Cc1ccc(OC)cc1 | -14.6 | - | 20.94
CC1(Cc2ccccn2)NCCc2[nH]cnc21 (stereo unspecified) | 7.355 | 12.98 | 9.888

Some entries from above, unchanged:

| structure | Mtb heat-shock | LdMetRS | Mtb growth Cornell |
|---|---|---|---|
| `Cc1nc(N)cc(C2(C)CCCNC2)n1` (stereo unspecified) | -3.19 | 11.05 | 52.22 |
| `Cc1cnccc1N1CCCN(C(=O)CCCc2cn[nH]c2)CC1` | 7.749 | 8.374 | -2.295 |

From ChEMBL document CHEMBL3988442, “University of Dundee, Small-Polar-MMV Screening Library” (2021).